Assay results from patent US11492636B2, “Modified bialaphos resistance acetyltransferase compositions and uses thereof” (Whitehead Institute for Biomedical Research, priority 2016, dated 2022).

Tested on: BAR-containing Arabidopsis
Test: LC-MS quantification of acetyl-aminoadipate and acetyl-tryptophan in BAR-containing Arabidopsis T-DNA mutants
Assay type: in vivo, Arabidopsis thaliana
Settings: for abundance in senescent leaf tissue: BAR-containing Arabidopsis, estimated

Question: What does the source list for CC(=O)N[C@@H](CCCC(=O)O)C(=O)O [acetyl-aminoadipate, N-acetyl-L-aminoadipate]?
Answer: abundance in senescent leaf tissue: around 100 μg/g fresh weight; acetyl-aminoadipate level in homozygous mutant (FLAG_lkrsdh homozygous, after senescence induction): greatly reduced

Question: For CC(=O)N[C@@H](Cc1c[nH]c2ccccc12)C(=O)O [acetyl-tryptophan, N-acetyl-L-tryptophan], which “abundance in senescent leaf tissue” value is on record?
Answer: The value was ~10 μg/g fresh weight.
